Results deposited as PubChem BioAssay AID1224828 (NIAID, 2016).

Purpose: 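Knock-downs that increase or decrease LPS-induced p65 nuclear translocation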 (primary screen)
Cells: mouse RAW264.7 G9 macrophage reporter cells (GFP-p65, Tnf promoter-mCherry)
Reagents: siRNA pool against mouse genes, 100 nM
Timing: 2 days siRNA transfection, then 40 min LPS before fixation
Challenge: LPS (Salmonella minnesota R595) at 10 ng/ml
Read-out: 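Microscopy ratio of nuclear to perinuclear-ring GFP-p65 signal, scaled to the plate median; gene score is the average of two replicate robust z-scores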
Reading the numbers: p65 translocation robust z-score: higher = more nuclear NF-kappaB p65 after LPS than the plate median; nuclear/cytoplasmic p65 ratio: higher = more nuclear NF-kappaB p65
Rule for the call: 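Active if robust z is above 3.3 (negative regulators) or below -1.56, the Tlr4 control median (positive regulators); activity score 50 or more; control wells not called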
Calls: active = hit (p65 shift raised or lowered); inactive = no clear change
In all, the deposit lists about 17,000 reagents; shown is a random part of them. Of all reagents, 762 (4.5%) got an active call. 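Active calls include both raised and lowered p65 entry, mostly lowered; wells with fewer than 50 cells lack a z-score.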 Raw values vary from plate to plate and are shown uncorrected. Unmarked entries are inactive.

Gene | p65 translocation robust z-score | nuclear/cytoplasmic p65 ratio, rep 1 | nuclear/cytoplasmic p65 ratio, rep 2 | low cell count flag
Semp2l2a | -2.32 (active) | 1.1 | 1.34 | enough cells to score
Pus10 | 0.12 | 1.33 | 1.52 | enough cells to score
Cenpi | 0.32 | 1.68 | 1.47 | enough cells to score
Slc38a2 | – | 1.23 | 1.28 | fewer than 50 cells per well; well left out of scoring
Cwc25 | -1.6 (active) | 1.3 | 1.24 | enough cells to score
Rnasel | -0.23 | 1.67 | 1.33 | enough cells to score
Mapk12 | 0.76 | 1.73 | 1.47 | enough cells to score
Trim31 | -0.53 | 1.47 | 1.79 | enough cells to score
Fcer2a | -1.36 | 1.28 | 1.2 | enough cells to score
Tspan14 | -1.38 | 1.35 | 1.58 | enough cells to score
Fam229b | -1.47 | 1.28 | 1.15 | enough cells to score
Col18a1 | 0.3 | 1.45 | 1.47 | enough cells to score
Art1 | 0.08 | 1.56 | 1.7 | enough cells to score
Ccdc92 | -0.83 | 1.43 | 1.45 | enough cells to score
Ogfod2 | -0.44 | 1.36 | 1.35 | enough cells to score
Or6c5 | – | 1.17 | 1.12 | fewer than 50 cells per well; well left out of scoring
Mixl1 | 1.85 | 1.57 | 1.69 | enough cells to score
Cog3 | -0.38 | 1.49 | 1.78 | enough cells to score
Hykk | 1.37 | 1.79 | 2.02 | enough cells to score
Pex2 | -0.82 | 1.44 | 1.36 | enough cells to score
Itih2 | -1.14 | 1.42 | 1.25 | enough cells to score
Atpaf2 | 0.24 | 1.56 | 1.62 | enough cells to score
Nt5e | -0.56 | 1.41 | 1.31 | enough cells to score
Adsl | -0.27 | 1.59 | 1.57 | enough cells to score
